This note sets out measurements from the supplement of paper PMC6411743.

The chains behind the UniProt entries cited, without tags or fusion partners. Where a name states a change or a piece, a line headed by the entry shows the natural chain unless it says otherwise.
UniProt Q96B97, whole entry: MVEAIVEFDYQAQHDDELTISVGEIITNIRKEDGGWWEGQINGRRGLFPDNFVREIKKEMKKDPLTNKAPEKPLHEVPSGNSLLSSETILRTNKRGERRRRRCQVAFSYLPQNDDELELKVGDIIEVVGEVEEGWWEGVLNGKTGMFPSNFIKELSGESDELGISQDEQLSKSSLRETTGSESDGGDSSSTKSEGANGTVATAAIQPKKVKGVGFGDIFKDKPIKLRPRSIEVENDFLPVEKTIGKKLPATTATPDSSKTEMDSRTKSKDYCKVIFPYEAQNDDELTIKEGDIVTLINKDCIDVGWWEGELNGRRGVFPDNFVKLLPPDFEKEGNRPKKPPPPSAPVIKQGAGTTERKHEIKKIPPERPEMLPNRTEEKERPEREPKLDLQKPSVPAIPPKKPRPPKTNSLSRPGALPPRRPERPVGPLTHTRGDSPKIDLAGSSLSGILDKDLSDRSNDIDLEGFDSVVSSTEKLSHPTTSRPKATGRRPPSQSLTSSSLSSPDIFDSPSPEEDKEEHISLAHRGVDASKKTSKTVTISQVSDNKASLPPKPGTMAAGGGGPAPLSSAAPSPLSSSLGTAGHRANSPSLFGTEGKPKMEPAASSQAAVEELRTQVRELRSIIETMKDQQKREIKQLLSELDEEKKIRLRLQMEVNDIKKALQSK
UniProt Q8TD19: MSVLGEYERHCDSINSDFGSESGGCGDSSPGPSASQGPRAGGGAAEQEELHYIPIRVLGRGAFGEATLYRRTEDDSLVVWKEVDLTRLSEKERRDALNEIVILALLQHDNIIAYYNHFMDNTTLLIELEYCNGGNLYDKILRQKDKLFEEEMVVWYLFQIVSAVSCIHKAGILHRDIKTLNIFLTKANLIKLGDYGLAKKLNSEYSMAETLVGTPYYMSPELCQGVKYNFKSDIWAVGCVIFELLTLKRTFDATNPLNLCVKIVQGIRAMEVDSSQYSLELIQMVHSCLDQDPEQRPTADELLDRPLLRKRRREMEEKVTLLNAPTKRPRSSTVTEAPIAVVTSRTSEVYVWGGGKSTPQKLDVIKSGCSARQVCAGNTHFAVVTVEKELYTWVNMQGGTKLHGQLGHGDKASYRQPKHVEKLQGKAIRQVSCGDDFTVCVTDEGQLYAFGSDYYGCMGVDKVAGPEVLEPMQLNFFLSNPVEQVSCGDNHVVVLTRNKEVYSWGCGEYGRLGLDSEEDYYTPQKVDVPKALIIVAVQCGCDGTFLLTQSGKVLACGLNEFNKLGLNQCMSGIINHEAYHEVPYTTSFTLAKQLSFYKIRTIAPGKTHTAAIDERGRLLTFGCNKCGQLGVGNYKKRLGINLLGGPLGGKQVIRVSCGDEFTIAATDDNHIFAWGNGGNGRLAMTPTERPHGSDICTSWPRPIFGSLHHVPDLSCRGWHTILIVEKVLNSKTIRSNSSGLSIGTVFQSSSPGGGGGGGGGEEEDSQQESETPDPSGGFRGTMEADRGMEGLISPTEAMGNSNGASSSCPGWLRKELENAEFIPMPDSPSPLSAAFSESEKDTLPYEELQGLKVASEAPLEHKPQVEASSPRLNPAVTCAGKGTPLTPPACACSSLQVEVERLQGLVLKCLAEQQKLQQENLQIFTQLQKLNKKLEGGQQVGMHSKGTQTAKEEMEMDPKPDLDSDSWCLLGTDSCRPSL
UniProt Q8WUW1: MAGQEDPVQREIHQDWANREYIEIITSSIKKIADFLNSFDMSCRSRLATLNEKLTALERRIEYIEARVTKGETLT
UniProt Q92616, whole entry: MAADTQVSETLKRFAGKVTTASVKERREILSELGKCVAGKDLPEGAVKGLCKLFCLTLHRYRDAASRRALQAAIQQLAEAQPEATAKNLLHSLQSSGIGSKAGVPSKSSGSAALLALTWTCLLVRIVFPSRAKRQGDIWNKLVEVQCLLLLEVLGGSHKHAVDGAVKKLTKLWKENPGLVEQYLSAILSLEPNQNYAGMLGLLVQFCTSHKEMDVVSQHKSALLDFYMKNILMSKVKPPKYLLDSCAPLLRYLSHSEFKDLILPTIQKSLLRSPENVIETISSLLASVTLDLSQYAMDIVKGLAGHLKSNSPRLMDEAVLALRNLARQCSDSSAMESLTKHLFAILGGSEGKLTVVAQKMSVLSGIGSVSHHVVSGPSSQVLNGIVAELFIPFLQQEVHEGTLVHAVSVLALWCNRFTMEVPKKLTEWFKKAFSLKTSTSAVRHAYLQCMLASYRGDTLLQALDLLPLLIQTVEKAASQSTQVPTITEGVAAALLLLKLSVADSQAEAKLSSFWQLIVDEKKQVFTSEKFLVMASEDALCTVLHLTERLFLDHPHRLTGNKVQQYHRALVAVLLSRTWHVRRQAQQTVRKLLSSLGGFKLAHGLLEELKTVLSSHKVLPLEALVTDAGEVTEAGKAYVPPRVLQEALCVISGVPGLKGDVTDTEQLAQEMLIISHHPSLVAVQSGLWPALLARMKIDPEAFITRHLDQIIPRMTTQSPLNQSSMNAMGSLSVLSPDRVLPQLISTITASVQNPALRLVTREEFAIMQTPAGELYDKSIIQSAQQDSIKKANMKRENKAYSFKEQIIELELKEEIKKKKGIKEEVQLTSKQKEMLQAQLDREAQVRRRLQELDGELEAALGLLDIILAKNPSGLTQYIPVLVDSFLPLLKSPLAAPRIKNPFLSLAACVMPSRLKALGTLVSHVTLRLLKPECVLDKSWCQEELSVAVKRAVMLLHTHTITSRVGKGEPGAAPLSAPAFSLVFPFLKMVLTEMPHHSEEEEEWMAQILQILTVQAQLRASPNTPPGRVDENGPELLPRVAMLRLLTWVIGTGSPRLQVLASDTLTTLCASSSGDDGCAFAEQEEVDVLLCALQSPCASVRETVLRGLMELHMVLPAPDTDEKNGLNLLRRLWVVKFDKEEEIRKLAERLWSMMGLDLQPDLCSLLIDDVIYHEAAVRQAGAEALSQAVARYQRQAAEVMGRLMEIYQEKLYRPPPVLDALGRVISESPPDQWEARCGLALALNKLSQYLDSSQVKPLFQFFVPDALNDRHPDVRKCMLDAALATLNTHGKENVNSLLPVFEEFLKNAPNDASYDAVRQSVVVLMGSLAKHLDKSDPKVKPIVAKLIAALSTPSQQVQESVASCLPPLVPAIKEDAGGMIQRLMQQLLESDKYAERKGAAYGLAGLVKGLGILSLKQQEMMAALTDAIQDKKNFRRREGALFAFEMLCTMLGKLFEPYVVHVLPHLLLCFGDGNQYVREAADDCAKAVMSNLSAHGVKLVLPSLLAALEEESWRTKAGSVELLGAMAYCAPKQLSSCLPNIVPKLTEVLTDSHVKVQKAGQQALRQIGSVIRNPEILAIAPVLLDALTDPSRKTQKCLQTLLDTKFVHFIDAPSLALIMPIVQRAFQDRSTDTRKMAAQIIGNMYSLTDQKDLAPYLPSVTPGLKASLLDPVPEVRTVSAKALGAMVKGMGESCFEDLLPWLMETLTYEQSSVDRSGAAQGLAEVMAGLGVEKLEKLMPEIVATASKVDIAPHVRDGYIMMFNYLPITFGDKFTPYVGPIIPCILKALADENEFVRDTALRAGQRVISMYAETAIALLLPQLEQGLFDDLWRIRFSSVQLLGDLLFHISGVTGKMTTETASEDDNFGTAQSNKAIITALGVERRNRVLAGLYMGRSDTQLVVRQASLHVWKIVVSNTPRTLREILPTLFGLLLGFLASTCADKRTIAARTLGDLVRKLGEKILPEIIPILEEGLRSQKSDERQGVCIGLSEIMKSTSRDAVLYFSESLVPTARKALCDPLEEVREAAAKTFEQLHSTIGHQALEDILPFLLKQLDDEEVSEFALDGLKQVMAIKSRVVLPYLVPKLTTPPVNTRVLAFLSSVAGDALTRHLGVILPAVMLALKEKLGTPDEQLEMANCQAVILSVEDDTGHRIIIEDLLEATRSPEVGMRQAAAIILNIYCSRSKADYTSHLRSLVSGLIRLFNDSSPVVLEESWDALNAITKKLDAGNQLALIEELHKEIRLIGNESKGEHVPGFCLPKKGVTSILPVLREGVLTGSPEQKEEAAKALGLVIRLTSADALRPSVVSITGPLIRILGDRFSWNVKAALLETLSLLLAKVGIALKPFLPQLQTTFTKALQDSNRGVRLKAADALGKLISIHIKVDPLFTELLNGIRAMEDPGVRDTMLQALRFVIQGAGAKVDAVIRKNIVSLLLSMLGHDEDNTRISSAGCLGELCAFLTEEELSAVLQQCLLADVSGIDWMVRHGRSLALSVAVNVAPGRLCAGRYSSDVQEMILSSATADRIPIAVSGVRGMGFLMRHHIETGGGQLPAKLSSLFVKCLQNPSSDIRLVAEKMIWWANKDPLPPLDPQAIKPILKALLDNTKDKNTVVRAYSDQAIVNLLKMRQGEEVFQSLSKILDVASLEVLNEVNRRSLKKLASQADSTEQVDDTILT
UniProt Q96A33: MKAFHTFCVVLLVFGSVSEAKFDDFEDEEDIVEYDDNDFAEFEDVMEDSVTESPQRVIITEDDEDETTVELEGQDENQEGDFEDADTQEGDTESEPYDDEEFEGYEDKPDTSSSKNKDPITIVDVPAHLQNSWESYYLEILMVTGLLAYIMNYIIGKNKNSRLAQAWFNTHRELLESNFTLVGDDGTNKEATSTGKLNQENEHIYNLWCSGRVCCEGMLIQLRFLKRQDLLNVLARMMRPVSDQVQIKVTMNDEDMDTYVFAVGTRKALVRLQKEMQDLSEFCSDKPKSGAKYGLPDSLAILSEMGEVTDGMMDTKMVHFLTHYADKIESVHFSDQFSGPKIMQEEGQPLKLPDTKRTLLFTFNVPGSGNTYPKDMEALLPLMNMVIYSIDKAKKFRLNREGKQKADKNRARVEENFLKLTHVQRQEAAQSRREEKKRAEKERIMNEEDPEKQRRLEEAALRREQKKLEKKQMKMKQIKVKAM
UniProt Q8TEQ6: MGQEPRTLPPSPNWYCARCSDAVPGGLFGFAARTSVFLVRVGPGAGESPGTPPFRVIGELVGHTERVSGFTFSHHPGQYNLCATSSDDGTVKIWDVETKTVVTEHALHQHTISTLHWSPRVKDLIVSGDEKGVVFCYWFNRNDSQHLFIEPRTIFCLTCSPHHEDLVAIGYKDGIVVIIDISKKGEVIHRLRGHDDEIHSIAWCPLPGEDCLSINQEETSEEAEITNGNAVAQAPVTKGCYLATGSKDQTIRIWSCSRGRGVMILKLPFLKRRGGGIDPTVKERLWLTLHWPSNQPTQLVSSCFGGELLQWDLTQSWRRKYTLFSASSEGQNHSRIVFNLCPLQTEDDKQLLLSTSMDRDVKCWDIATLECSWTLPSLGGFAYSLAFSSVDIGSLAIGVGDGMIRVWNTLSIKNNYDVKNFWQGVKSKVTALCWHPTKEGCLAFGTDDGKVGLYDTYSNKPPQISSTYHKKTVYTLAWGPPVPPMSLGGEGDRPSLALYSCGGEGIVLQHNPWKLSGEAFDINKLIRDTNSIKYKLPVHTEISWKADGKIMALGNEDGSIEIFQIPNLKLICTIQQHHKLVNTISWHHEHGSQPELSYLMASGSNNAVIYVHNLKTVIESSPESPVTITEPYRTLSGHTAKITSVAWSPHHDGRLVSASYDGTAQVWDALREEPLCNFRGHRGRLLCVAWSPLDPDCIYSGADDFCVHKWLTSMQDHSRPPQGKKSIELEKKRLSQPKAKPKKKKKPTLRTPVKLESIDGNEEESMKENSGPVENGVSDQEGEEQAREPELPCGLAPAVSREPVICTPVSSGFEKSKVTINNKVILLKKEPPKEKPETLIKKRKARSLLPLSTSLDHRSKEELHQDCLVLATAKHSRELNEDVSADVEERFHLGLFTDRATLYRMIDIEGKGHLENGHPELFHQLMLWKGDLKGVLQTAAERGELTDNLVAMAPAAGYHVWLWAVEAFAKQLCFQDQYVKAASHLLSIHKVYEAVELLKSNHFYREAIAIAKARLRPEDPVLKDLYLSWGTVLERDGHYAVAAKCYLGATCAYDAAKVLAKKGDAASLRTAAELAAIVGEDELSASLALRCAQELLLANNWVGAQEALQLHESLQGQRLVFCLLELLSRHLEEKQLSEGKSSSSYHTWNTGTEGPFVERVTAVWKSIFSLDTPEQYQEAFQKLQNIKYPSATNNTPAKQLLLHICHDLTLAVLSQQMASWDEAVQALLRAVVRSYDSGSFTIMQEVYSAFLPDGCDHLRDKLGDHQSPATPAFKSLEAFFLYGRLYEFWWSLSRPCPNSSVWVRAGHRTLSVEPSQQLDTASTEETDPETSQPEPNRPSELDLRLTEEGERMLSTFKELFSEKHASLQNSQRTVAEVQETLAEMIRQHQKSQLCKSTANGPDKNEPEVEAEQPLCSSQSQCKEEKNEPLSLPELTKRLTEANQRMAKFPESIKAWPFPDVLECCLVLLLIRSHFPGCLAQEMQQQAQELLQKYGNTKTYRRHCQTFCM

± gives the standard deviation of the averaged measurements. The list shows a part of the results, in another mix than the full data.

Compound in the test: Nc1ncnc2c1ncn2[C@@H]1O[C@H](COP(=O)(O)OP(=O)(O)OP(=O)(O)O)[C@@H](O)[C@H]1O [adenosine triphosphate]
Nature of the test: NP40-soluble protein abundance relative to vehicle (solubility fold change) (ratio); higher = more soluble protein in presence of ATP. In a few lines:
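Jurkat crude lysate prepared with a Dounce homogeniser was treated at eight concentrations spanning 0.1 to 10 mM, 10 min at room temperature then 3 min at 37 °C. Solubilisation with 0.8% NP40 and benzonase and ultracentrifugation preceded TMT labelling of the supernatant for LC-MS/MS. Fold change against the detergent-processed vehicle was determined per replicate from vsn-normalised intensities, across three independent experiments.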

ZUP1 (UniProt Q96AP4): the NP40-soluble protein abundance was 0.957 ± 0.06 (concentration: 1mM); 0.991 ± 0.063 (concentration: 2mM); 0.951 ± 0.1 (concentration: 4mM); 0.947 ± 0.088 (concentration: 6mM); 0.967 ± 0.072 (concentration: 8mM); 0.953 ± 0.055 (concentration: 10mM).

As for UniProt Q96B97 and related entries, the NP40-soluble protein abundance reads like this: (concentration: 1mM) 0.96 ± 0.037; (concentration: 2mM) 0.959 ± 0.033; (concentration: 4mM) 0.948 ± 0.022; (concentration: 6mM) 0.979 ± 0.041; (concentration: 8mM) 0.936 ± 0.018; (concentration: 10mM) 0.935 ± 0.011.

As to UniProt Q93050 and related entries, the NP40-soluble protein abundance (concentration: 1mM) is 1.03 ± 0.011; the NP40-soluble protein abundance (concentration: 2mM) turned out to be 0.981 ± 0.018; the NP40-soluble protein abundance (concentration: 4mM) was found to be 0.981 ± 0.018; the NP40-soluble protein abundance (concentration: 6mM) is 0.98 ± 0.098; the NP40-soluble protein abundance (concentration: 8mM) worked out at 0.983 ± 0.044; the NP40-soluble protein abundance (concentration: 10mM) was 0.992 ± 0.06.

For the target NEK9 (UniProt Q8TD19), the NP40-soluble protein abundance stood at 0.978 ± 0.023 (concentration: 1mM); 0.982 ± 0.021 (concentration: 2mM); 0.9811 ± 0.004 (concentration: 4mM); 0.936 ± 0.022 (concentration: 6mM); 0.967 ± 0.011 (concentration: 8mM); 0.978 ± 0.021 (concentration: 10mM).

Regarding EMG1 (UniProt Q92979), the NP40-soluble protein abundance runs as follows: (concentration: 1mM) 1.1 ± 0.033; (concentration: 2mM) 1.11 ± 0.044; (concentration: 4mM) 1.19 ± 0.027; (concentration: 6mM) 1.18 ± 0.072; (concentration: 8mM) 1.214 ± 0.01; (concentration: 10mM) 1.26 ± 0.018.

For the target UniProt Q8WUW1 and related entries, the NP40-soluble protein abundance (concentration: 1mM) was determined as 0.856 ± 0.12; the NP40-soluble protein abundance (concentration: 2mM) was determined as 0.818 ± 0.13; the NP40-soluble protein abundance (concentration: 4mM) came out at 0.821 ± 0.099; the NP40-soluble protein abundance (concentration: 6mM) came out at 0.904 ± 0.14; the NP40-soluble protein abundance (concentration: 8mM) came to 0.776 ± 0.13; the NP40-soluble protein abundance (concentration: 10mM) is 0.81 ± 0.17.

In the case of PDCD6IP (UniProt Q8WUM4), the NP40-soluble protein abundance reads like this: (concentration: 1mM) 0.97 ± 0.031; (concentration: 2mM) 0.9619 ± 0.0094; (concentration: 4mM) 0.921 ± 0.016; (concentration: 6mM) 0.972 ± 0.029; (concentration: 8mM) 0.924 ± 0.013; (concentration: 10mM) 0.934 ± 0.028.

Take UniProt Q92616: the NP40-soluble protein abundance by setting is: (concentration: 1mM) 1.04 ± 0.067; (concentration: 2mM) 1.01 ± 0.043; (concentration: 4mM) 0.993 ± 0.034; (concentration: 6mM) 0.96 ± 0.031; (concentration: 8mM) 0.996 ± 0.04; (concentration: 10mM) 1.01 ± 0.047.

Turning to UniProt Q92734 and related entries, the NP40-soluble protein abundance (concentration: 1mM) stood at 0.879 ± 0.04; the NP40-soluble protein abundance (concentration: 2mM) was 0.907 ± 0.04; the NP40-soluble protein abundance (concentration: 4mM) was determined as 0.876 ± 0.058; the NP40-soluble protein abundance (concentration: 6mM) was determined as 0.909 ± 0.062; the NP40-soluble protein abundance (concentration: 8mM) was 0.854 ± 0.045; the NP40-soluble protein abundance (concentration: 10mM) came to 0.878 ± 0.013.

For UniProt Q92845 and related entries, the NP40-soluble protein abundance is 0.992 ± 0.07 (concentration: 1mM); 0.992 ± 0.086 (concentration: 2mM); 1.04 ± 0.13 (concentration: 4mM); 1.05 ± 0.091 (concentration: 6mM); 0.997 ± 0.037 (concentration: 8mM); 1.01 ± 0.11 (concentration: 10mM).

For UniProt Q8TEP8-3, the NP40-soluble protein abundance amounted to 0.955 ± 0.1 (concentration: 1mM); 0.994 ± 0.074 (concentration: 2mM); 1 ± 0.029 (concentration: 4mM); 0.999 ± 0.086 (concentration: 6mM); 0.985 ± 0.044 (concentration: 8mM); 0.987 ± 0.05 (concentration: 10mM).

For RTF1 (UniProt Q92541), the NP40-soluble protein abundance amounted to 0.914 ± 0.054 (concentration: 1mM); 0.909 ± 0.036 (concentration: 2mM); 0.876 ± 0.03 (concentration: 4mM); 0.939 ± 0.025 (concentration: 6mM); 0.889 ± 0.02 (concentration: 8mM); 0.89 ± 0.023 (concentration: 10mM).

With CCDC47 (UniProt Q96A33), the NP40-soluble protein abundance runs as follows: (concentration: 1mM) 0.996 ± 0.035; (concentration: 2mM) 0.989 ± 0.023; (concentration: 4mM) 0.987 ± 0.0099; (concentration: 6mM) 0.977 ± 0.023; (concentration: 8mM) 1.01 ± 0.023; (concentration: 10mM) 0.993 ± 0.025.

Regarding CASKIN2 (UniProt Q8WXE0), the NP40-soluble protein abundance is 1 ± 0.036 (concentration: 1mM); 1.05 ± 0.034 (concentration: 2mM); 1.05 ± 0.045 (concentration: 4mM); 1.03 ± 0.069 (concentration: 6mM); 0.988 ± 0.053 (concentration: 8mM); 1.04 ± 0.019 (concentration: 10mM).

As to UniProt Q8TD26 and related entries, the NP40-soluble protein abundance by setting is: (concentration: 1mM) 1.06 ± 0.061; (concentration: 2mM) 1.13 ± 0.022; (concentration: 4mM) 1.13 ± 0.053; (concentration: 6mM) 1.11 ± 0.11; (concentration: 8mM) 1.11 ± 0.016; (concentration: 10mM) 1.11 ± 0.091.

As to DPF3 (UniProt Q92784), the NP40-soluble protein abundance runs as follows: (concentration: 1mM) 1.01 ± 0.067; (concentration: 2mM) 1.06 ± 0.12; (concentration: 4mM) 1.08 ± 0.096; (concentration: 6mM) 1.09 ± 0.12; (concentration: 8mM) 1.06 ± 0.12; (concentration: 10mM) 1.03 ± 0.056.

Take GEMIN5 (UniProt Q8TEQ6): the NP40-soluble protein abundance was found to be 1.04 ± 0.1 (concentration: 1mM); 1.01 ± 0.068 (concentration: 2mM); 1.01 ± 0.046 (concentration: 4mM); 0.93 ± 0.079 (concentration: 6mM); 1.02 ± 0.018 (concentration: 8mM); 1.02 ± 0.053 (concentration: 10mM).
